These results are taken from PMC8782181.

By UniProt entry, the sequences of proteins in these tests, tags left out.
UniProt P53297: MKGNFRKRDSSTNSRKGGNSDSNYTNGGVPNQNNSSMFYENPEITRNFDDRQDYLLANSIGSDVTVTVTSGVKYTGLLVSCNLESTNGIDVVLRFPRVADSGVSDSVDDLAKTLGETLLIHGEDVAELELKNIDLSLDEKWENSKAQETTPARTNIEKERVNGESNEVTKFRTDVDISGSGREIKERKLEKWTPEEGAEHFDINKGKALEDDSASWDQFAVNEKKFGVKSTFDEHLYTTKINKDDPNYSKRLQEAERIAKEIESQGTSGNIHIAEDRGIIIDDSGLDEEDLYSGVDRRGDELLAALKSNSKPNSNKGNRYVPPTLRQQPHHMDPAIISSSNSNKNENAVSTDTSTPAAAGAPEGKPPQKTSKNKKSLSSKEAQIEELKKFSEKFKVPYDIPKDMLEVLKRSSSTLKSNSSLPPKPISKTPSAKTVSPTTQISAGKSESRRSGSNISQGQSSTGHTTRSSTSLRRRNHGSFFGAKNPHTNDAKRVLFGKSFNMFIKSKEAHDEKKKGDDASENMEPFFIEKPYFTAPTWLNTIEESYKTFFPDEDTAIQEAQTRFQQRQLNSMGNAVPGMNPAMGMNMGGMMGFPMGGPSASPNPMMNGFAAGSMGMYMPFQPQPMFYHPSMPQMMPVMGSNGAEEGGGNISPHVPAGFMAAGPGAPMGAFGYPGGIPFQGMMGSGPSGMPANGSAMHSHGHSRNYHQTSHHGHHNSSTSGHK

These are yes or no findings as the source states them, for the method shown. In cells and extracts the contact can be indirect. A yes stands for co-enrichment or nearness to the bait. Other partners may have been found. For part of these data: Tags and fused reporters may be left off the sequences shown.

The target of assay [1] is Pbp1-myc (S. cerevisiae) (UniProt P53297). The experiment in a line: affinity purification with mass spectrometry; cells unstressed or glucose-depleted (10 min for Dcp1-myc, 60 min for Pbp1-myc), cross-linked with 0.8% formaldehyde; 20,000 g pellet of the lysate in Blob100 buffer (20 mM Tris-HCl pH 8, 100 mM NaCl, 1 mM MgCl2, 0.5% NP40) on anti-c-Myc magnetic beads, eluted with Myc peptide; label-free LC-MS/MS; hits are the proteins that cluster (Mfuzz) with the tagged bait across IP, pellet, supernatant, total and unbound fractions.

In assay [2] the target is T1, Dcp1-myc (S. cerevisiae) (UniProt Q12517).
T1 sequence: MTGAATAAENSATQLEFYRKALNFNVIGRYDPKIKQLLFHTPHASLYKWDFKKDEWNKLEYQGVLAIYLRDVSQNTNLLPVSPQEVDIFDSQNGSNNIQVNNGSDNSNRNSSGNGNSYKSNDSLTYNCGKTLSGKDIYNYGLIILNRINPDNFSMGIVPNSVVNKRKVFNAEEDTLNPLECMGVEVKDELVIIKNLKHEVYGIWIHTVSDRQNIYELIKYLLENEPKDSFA
The description is as above.

B1: Hek2 (protein, UniProt P38199 1-381)
chain: MSQFFEAATPVAIPTNNTNGGSSDAGSAATGGAPVVGTTAQPTINHRLLLSLKEAAKIIGTKGSTISRIRAANAVKIGISEKVPGCSDRILSCAGNVINVANAIGDIVDVLNKRNPENEDAAEGEAEEHYYFHFLNHILPAPSKDEIRDLQQLEDIGYVRLIVANSHISSIIGKAGATIKSLINKHGVKIVASKDFLPASDERIIEIQGFPGSITNVLIEISEIILSDVDVRFSTERSYFPHLKKSSGEPTSPSTSSNTRIELKIPELYVGAIIGRGMNRIKNLKTFTKTNIVVERKDDDDKDENFRKFIITSKFPKNVKLAESMLLKNLNTEIEKRENYKRKLEAAEGDATVVTERSDSASFLEEKEEPQENHDNKEEQS
B1: the binding result in assay [1] and in assay [2] was “binds” each time.

B2: Lcp5 (protein, UniProt P40079 1-357)
chain: MSELNALLKDINGSLTATSESLERLSGIYSNSATDEIPESNQLHEHLFYDAKKPAEKVSLLSLKNGSMLGYINSLLMLIGNRLDDECKDPSAMDARERSIQHRVVLERGVKPLEKKLAYQLDKLTRAYVKMEKEYKDAEKRALEKSTLVNHSGNDDSEDDESSEDEIAYRPNTSGIINTNKKSSAYRVEETAKQENGEENDDNETGVYKPPKITAVLPPQQTHFEDRFDAREHKDRSNKSRMQAMEEYIRESSDQPDWSASIGADIVNHGRGGIKSLRDTEKERRVTSFEEDNFTRLNITNKAEKRKQKQRERNARMNVIGGEDFGIFSSKRKLEDSTSRRGAKKTRSAWDRAQRRL
In the case of B2, the binding result in assay [1] and in assay [2] was “binds” in each case.

B3: Def1 (protein, UniProt P35732 1-738)
chain: MSTQFRKSNHNSHSSKKLNPALKSKIDTLTELFPDWTSDDLIDIVQEYDDLETIIDKITSGAVTRWDEVKKPAKKEKYEKKEQQHSYVPQQHLPNPEDDITYKSSNNSNSFTSTKHNSSNNYTQARNKKKVQTPRAHTTGKHVNLDKGKHVPSKPVSNTTSWAAAVSVDTKHDVPQDSNDNNNEELEAQGQQAQEKNQEKEQEEQQQQEGHNNKEEHKQIEQPSLSSKKTTSRTSASQPKKMSWAAIATPKPKAVKKTESPLENVAELKKEISDIKKDDQKSEASEEKVNEQETSAQEQEEETAEPSEENEDRVPEVDGEEVQEEAEKKEQVKEEEQTAEELEQEQDNVAAPEEEVTVVEEKVEISAVISEPPEDQANTVPQPQQQSQQPQQPQQPQQPQQPQQPQQQQQPQQPQQPQQQLQQQQQQQQQPVQAQAQAQEEQLSQNYYTQQQQQQYAQQQHQLQQQYLSQQQQYAQQQQQHPQPQSQQPQSQQSPQSQKQGNNVAAQQYYMYQNQFPGYSYPGMFDSQGYAYGQQYQQLAQNNAQTSGNANQYNFQQGYGQAGANTAAANLTSAAAAAAASPATAHAQPQQQQPYGGSFMPYYAHFYQQSFPYGQPQYGVAGQYPYQLPKNNYNYYQTQNGQEQQSPNQGVAQHSEDSQQKQSQQQQQQQPQGQPQPEVQMQNGQPVNPQQQMQFQQYYQFQQQQQQAAAAAAAAAQQGVPYGYNGYDYNSKNSRGFY
For the molecule B3, the binding result in assay [1] and in assay [2] was “binds” in each case.

B4: Clu1 (protein, UniProt Q03690 1-1277)
chain: MSEKKEEVKNATVKVTVKLPKEDNHSHNTKHLKKTQSSKNNDISFEIGKESKIQTVLDVLAMIPSSKYLTNVGLKTIEGDSQLSDEMSIKEIVGEKSELKLQLILKPYSAREALKHVITVRDFIGFAQETSDGLSEFAISTGSSFSSLPLGPIKERSKQEEKDEKSDPEEKKNTFKDVTDEEKLKFNEMVHEVFSSFKNSSINKLLTSESNIITPCVRSLSFAPYNPVPPFYRSKGHLFYLQIVTLEGESFYITAIPSGFYVNKSNSTKFDPSPKENTDENAHSSLIYYSLFDLIASRSKKFISHVQAFEKKLSALDSTSYVRPSNTFLHKPWFVSSLPPNNPDYLRLQTAALDTTPERNFNDEFQAIKDLTTSTLQDRIEMERLFSKVVHEFSVTAASGAMSIFYSDFVAMNPESPTRDQIFLKDNIFYSYVSDVSGNYEGKGGDEAAIAASNQDLKTINILNRLHMHEVRYLLTTVVEFAGRRILAQTPVPGLLATMGNKIVKDANTGEEVTEDFVNDINVKYGLDEGLGKIVYDADFDSVLEKKFVKAFHLKKHKVNGTELAFSSQSKGIVGFDKRRYILDLANTYPLDINFARQNFDNIEETGNRYPHRQTLLRPELVEKWWNNKVEKEGVEFEKAYEENLFSYNPDAYQVEGIEDANVDEMSNYLQKEVIPSVIQDYLSGNLSTPYNGEHLADTLHKNGINMRYLGKIIELSQKELDSQIVHYEQNLKAVEQDNKEYEDWEKSYLQKIENMIKERQAKINKLVQEGKEVPKELTEDLKLNDEEIKKPTDGKPVVVAYDELVPLIKISELEIVSRSLKHVLKDLSKDVPVFLVPSLVAYVFNMLVGINYNADPKPEPVDEFYPVNKCSFAKLTRSELLEAVSKQAFLRFRHQLPSNWIEAYMENPFTLIRSVSYKFGIQLLNKEYFFTREQLESYKQSLDKKIRNKFVEPPTTFSLSDLTIIPRVKFSEYTSSVSEEFWAQGASMINEDKQSALTLLAQSITVLEDVNNILHPAVAEKYLSLSAIYNKLALYPEAIAFCRKACTIYERVSGIDSFEMMRALTNLAILEFSNESPYNATVVYNRLAEILKVYELPKIHHPAPTSIFNHLEQLALGVQDTKLAIEVLGQLSSYVVELEGKDSLAYGYTESRLGNLFAALKDFHRALEHITVTQGIFTKQLGMNHTHSAQSRQWVNGLSSLIMDLKQKKQLAQDQMSTTGSNSAGHKKTNHRQKKDDVKPELANKSVDELLTFIEGDSSNSKSKNKTNNKKKHGKK
Take B4: the binding result in assay [1] and in assay [2] was “binds” throughout.

B5: Cic1 (protein, UniProt P38779 1-376)
chain: MAKKSNSKKSTPVSTPSKEKKKVIEKKSSTAIPRERVIKAVNELIKFTSKPQDENNEEGNNGKKNLLEDDEEELKKDLQLIVVNNKSFTGTSKSFKLKLLNVKHSFYKPWKEASATAVKDFKVLLILKDSDIKKVSEDDLFDQLDSEGIKVDEIICGKDLKTVYKAYEARNAFISQFSLILADDSIVTSLPKLMGGKAYNKVETTPISIRTHANKEFSLTTLTNNIKKVYMNQLPVKLPRGTTLNVHLGNLEWLRPEEFVDNVELISEQLIKAYQIRSIFIKTNRSPVLPLYYNQDVLDELEAKKDKIEETHEDDMVTIDGVQVHLSTFNKGLMEIANPSELGSIFSKQINNAKKRSSSELEKESSESEAVKKAKS
On to B5, for which the binding result in assay [1] and in assay [2] was “binds” each time.

B6: Meu1 (protein, UniProt Q07938 1-337)
chain: MNRIKNTFSVAKRLKLSKVMTNSELPSIFEGTVDLGIIGGTGLYNLDCLEPIALLPPMVTPWGTTSSPVTISQFVGTNSHFHVAFIARHGINHEYPPTKVPFRANMAALKNLNCKAVLSFSAVGSLQPHIKPRDFVLPQQIIDRTKGIRHSSYFNDEGLVGHVGFGQPFSQKFAEYIYQFKNEITNPESEEPCHLHYDKDMTVVCMEGPQFSTRAESKMYRMFGGHVINMSVIPEAKLARECELPYQMICMSTDYDAWRDEAEPVTVETVIGNLTNNGRNANILASKIIVSMAKEIPEFMHTGDGLRGSIKKSISTKPEAMSKETLERLRYLFPNYW
Turning to B6, the binding entry in assay [1] and in assay [2] was “binds” each time.
